Source: PMC11134608, “UBR5 forms ligand-dependent complexes on chromatin to regulate nuclear hormone receptor stability” (Molecular cell, 2023)
These are yes or no findings as the source states them, for the method shown. Binding seen in cells or lysates may run through a third protein. Some binding calls cover weakened binding; strength is not graded here. Where a sequence is shown, tags or fusion partners need not be part of it.

Sequences of proteins named here, by UniProt entry; tags and fusion partners are left off.
UniProt P03372: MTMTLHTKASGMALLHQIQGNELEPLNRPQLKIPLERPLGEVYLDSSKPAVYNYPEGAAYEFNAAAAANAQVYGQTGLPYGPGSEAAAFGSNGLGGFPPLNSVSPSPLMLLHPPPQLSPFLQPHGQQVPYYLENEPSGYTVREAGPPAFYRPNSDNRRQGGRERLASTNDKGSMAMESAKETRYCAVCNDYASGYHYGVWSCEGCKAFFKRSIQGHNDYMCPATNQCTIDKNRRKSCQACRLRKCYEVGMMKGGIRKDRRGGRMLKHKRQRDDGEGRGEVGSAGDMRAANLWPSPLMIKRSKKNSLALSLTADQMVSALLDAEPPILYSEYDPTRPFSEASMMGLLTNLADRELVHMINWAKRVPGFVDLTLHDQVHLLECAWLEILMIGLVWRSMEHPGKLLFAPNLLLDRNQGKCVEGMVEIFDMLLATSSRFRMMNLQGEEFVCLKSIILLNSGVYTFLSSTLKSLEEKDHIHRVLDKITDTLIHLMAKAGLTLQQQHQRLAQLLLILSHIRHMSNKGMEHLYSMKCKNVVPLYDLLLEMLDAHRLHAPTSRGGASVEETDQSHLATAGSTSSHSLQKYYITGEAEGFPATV

B1: RNF111 (NanoBRET fusion, in cells) (enzyme, UniProt Q6ZNA4 1-994)
chain: MSQWTPEYNELYTLKVDMKSEIPSDAPKTQESLKGILLHPEPIGAAKSFPAGVEMINSKVGNEFSHLCDDSQKQEKEMNGNQQEQEKSLVVRKKRKSQQAGPSYVQNCVKENQGILGLRQHLGTPSDEDNDSSFSDCLSSPSSSLHFGDSDTVTSDEDKEVSVRHSQTILNAKSRSHSARSHKWPRTETESVSGLLMKRPCLHGSSLRRLPCRKRFVKNNSSQRTQKQKERILMQRKKREVLARRKYALLPSSSSSSENDLSSESSSSSSTEGEEDLFVSASENHQNNPAVPSGSIDEDVVVIEASSTPQVTANEEINVTSTDSEVEIVTVGESYRSRSTLGHSRSHWSQGSSSHASRPQEPRNRSRISTVIQPLRQNAAEVVDLTVDEDEPTVVPTTSARMESQATSASINNSNPSTSEQASDTASAVTSSQPSTVSETSATLTSNSTTGTSIGDDSRRTTSSAVTETGPPAMPRLPSCCPQHSPCGGSSQNHHALGHPHTSCFQQHGHHFQHHHHHHHTPHPAVPVSPSFSDPACPVERPPQVQAPCGANSSSGTSYHEQQALPVDLSNSGIRSHGSGSFHGASAFDPCCPVSSSRAAIFGHQAAAAAPSQPLSSIDGYGSSMVAQPQPQPPPQPSLSSCRHYMPPPYASLTRPLHHQASACPHSHGNPPPQTQPPPQVDYVIPHPVHAFHSQISSHATSHPVAPPPPTHLASTAAPIPQHLPPTHQPISHHIPATAPPAQRLHPHEVMQRMEVQRRRMMQHPTRAHERPPPHPHRMHPNYGHGHHIHVPQTMSSHPRQAPERSAWELGIEAGVTAATYTPGALHPHLAHYHAPPRLHHLQLGALPLMVPDMAGYPHIRYISSGLDGTSFRGPFRGNFEELIHLEERLGNVNRGASQGTIERCTYPHKYKKVTTDWFSQRKLHCKQDGEEGTEEDTEEKCTICLSILEEGEDVRRLPCMHLFHQVCVDQWLITNKKCPICRVDIEAQLPSES
B2: FLAG-RNF111 (enzyme, UniProt Q6ZNA4 1-994)
chain: B1 chain

Key:
[1] = molecular target: ER (NanoBRET fusion, in cells) (UniProt P03372); test: FRET or BRET; NanoBRET PPI kit (Promega) in cells, ± ligand (9-cis RA; fulvestrant)
ER-GFP (293T) = ER-GFP (293T) (UniProt P03372); test: co-IP; 293T cells co-transfected with FLAG-RNF111 and ER-GFP, ± fulvestrant and MG132; blotted for FLAG and GFP

| Binder | binding [1] | binding (ER-GFP (293T)) |
| --- | --- | --- |
| B1 | binds | – |
| B2 | – | binds |
